{
  "source": "patent US20260274828A1",
  "about": "“BROAD SPECTRUM ANTIFUNGAL KETO-ALKYL-PYRIDINIUM COMPOUNDS” (priority 2023, published 2026)",
  "key": {"C. albicans": {"system": "C. albicans", "conditions": "Edlind et al., 2005; cited from earlier work"}, "S. aureus": {"system": "S. aureus", "test": "Antibacterial MIC", "assay_type": "cell-based, Staphylococcus aureus"}},
  "note": "For part of these data: For at least one compound, name, drawing or mass did not settle the structure. Some entries share one result that the patent states for a list of compounds.",
  "data": [
    {"smiles": "CCCCCCCCCCCCCCCC[n+]1ccccc1", "note": "[cetylpyridinium chloride]", "values": [
      {"measurement": "interaction with fluconazole", "setting": "C. albicans", "result": "antagonism"}
    ]},
    {"smiles": "Cc1cc[n+](CC(=O)c2ccc(-c3ccc(Oc4ccccc4)cc3)cc2)cc1.[Br-]", "note": "[Compound B]", "values": [
      {"measurement": "fold less active compared to cetylpyridinium chloride", "setting": "S. aureus", "result": "8-16 fold"}
    ]},
    {"smiles": "Nc1cc[n+](CC(=O)c2ccc3c(c2)OC(c2ccccc2)(c2ccccc2)O3)cc1.[Cl-]", "note": "[Compound A]", "values": [
      {"measurement": "fold less active compared to cetylpyridinium chloride", "setting": "S. aureus", "result": "8-16 fold"}
    ]}
  ]
}
